Tested on: human liver specimens
Test: Multimer staining of human liver specimens ex vivo (tissue microarray), fluorescence intensity and ROC
Method: Binding of Cy5.5-labeled peptide multimer was evaluated using human HCC specimens ex vivo. All experiments using human tissues were approved by the Michigan Medicine IRB (HUM00122873). A tissue microarray (TMA) was generated from n=120 liver specimens provided by the archived tissue bank in the Department of Pathology. Paraffin-embedded (FFPE) section slide was deparaffinized and conducted through antigen retrieval. Blocking procedure was performed with 5% goat serum for 1 hour at room temperature. The slide was first stained with the Cy5.5 labeled peptide multimer at 5 μM for 5 min at room temperature. The section was then incubated with primary antibodies using 1:200 dilution of primary recombinant rabbit anti-GPC3 antibody (#ab95363, Abcam), 1:500 dilution of primary recombinant mouse anti-CD44 antibody (#3570, Cell Signaling Technology), and AF594-labeled primary anti-EpCAM (#7319, Cell Signaling Technology) overnight at 4° C. After washing with 2% BSA in PBST, section was incubated with 1:500 dilution of AF488-labeled secondary goat anti-mouse IgG antibody (#ab150113, Abcam) and 1:500 dilution of AF532-labeled secondary goat anti-rabbit IgG antibody (#A-11029, Life Technologies) for 1 hour at room temperature, and mounted with Prolong Gold reagent containing DAPI at last (Invitrogen). The fluorescence images were collected using Leica Stellaris 5 (inverted), excitation at Aex=670 nm for the peptide multimer, and λex=488, 532, 594 nm for CD44, GPC3 and EpCAM antibody, respectively. Fluorescence intensities were quantified using Leica LAS AF Lite software. All slides were evaluated by an expert liver pathologist.

[1] = distinguish HCC from non-HCC (cirrhosis, adenoma, and normal)

Substance: Cy5.5-labeled peptide multimer: peptide multimer of GPC3-, CD44- and EpCAM-specific peptides labeled with Cy5.5 (peptide 1 ALLANHEELFQT; peptide 2 WKGWSYLWTQQA; peptide 3 HPDMFTRTHSHN; left off: things letters cannot carry; small tags and cut ends)
- AUC (ROC) (distinguish HCC from cirrhosis): 0.89
- sensitivity (ROC) (distinguish HCC from cirrhosis): 87%
- specificity (ROC) (distinguish HCC from cirrhosis): 80%
- AUC (ROC) [1]: 0.90
- sensitivity (ROC) [1]: 90%
- specificity (ROC) [1]: 80%

Reference: patent US20260248969A1, “PEPTIDE MULTIMER PRODUCTS AND METHODS” (REGENTS OF THE UNIVERSITY OF MICHIGAN, priority 2023, published 2026)
